Data: the supplement of paper PMC10849652
The list shows a part of the results. Residues, ends and D or L forms follow the SMILES beside them. *: point of attachment. Cbz = O=C(OCc1ccccc1)*

The chains behind the UniProt entries cited, without tags or fusion partners. Where a name states a change or a piece, a line headed by the entry shows the natural chain unless it says otherwise.
UniProt O43837: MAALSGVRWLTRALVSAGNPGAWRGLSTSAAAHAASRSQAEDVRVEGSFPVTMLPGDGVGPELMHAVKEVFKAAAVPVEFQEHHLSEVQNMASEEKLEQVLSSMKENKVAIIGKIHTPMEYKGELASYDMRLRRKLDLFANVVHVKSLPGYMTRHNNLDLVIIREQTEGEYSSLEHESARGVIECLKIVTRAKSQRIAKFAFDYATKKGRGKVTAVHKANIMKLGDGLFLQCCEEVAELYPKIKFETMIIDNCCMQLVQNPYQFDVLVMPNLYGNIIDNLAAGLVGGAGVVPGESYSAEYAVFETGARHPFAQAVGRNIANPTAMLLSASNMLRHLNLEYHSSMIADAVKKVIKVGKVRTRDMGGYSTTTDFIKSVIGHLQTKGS
UniProt P48735: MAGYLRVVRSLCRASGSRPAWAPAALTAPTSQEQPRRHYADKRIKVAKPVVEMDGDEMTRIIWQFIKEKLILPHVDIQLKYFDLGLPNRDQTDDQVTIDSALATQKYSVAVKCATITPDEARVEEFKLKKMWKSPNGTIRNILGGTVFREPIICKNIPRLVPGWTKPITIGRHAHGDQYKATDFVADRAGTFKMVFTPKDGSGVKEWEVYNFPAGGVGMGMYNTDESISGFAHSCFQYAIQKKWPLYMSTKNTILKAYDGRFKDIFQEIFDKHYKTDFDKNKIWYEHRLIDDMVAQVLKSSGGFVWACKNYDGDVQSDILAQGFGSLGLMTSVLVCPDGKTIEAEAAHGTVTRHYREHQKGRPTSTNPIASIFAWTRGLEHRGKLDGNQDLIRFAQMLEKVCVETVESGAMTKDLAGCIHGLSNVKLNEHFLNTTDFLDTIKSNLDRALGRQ
UniProt Q9NVR2, whole entry, looked up: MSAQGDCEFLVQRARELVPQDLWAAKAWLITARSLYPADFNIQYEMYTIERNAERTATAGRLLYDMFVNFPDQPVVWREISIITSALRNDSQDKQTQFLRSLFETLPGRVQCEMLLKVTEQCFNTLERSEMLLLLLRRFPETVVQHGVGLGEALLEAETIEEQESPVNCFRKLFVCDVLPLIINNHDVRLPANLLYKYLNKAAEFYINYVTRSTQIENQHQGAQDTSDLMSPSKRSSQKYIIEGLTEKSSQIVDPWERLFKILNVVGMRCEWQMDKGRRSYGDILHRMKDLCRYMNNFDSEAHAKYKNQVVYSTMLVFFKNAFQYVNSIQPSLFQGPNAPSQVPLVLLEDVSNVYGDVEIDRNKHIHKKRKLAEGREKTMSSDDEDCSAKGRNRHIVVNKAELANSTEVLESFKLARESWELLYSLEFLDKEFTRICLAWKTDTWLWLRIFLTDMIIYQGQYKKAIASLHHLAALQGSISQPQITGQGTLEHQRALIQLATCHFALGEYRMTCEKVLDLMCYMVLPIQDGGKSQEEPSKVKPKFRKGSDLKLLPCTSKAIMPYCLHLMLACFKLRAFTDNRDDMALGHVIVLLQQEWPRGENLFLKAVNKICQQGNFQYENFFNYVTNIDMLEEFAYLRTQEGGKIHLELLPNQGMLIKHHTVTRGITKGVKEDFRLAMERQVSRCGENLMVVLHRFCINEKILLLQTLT
UniProt Q9NV31: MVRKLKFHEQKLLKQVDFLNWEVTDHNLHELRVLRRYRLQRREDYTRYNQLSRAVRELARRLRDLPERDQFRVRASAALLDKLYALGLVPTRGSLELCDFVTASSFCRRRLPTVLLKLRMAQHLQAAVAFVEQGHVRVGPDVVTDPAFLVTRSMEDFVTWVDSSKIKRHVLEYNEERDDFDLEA
UniProt Q14116, whole entry, looked up: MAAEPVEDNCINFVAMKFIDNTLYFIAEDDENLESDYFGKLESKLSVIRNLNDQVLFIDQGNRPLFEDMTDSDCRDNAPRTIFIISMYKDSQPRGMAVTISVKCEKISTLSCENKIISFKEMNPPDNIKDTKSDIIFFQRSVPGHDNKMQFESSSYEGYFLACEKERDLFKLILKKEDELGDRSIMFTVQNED
UniProt Q9NV88, whole entry, looked up: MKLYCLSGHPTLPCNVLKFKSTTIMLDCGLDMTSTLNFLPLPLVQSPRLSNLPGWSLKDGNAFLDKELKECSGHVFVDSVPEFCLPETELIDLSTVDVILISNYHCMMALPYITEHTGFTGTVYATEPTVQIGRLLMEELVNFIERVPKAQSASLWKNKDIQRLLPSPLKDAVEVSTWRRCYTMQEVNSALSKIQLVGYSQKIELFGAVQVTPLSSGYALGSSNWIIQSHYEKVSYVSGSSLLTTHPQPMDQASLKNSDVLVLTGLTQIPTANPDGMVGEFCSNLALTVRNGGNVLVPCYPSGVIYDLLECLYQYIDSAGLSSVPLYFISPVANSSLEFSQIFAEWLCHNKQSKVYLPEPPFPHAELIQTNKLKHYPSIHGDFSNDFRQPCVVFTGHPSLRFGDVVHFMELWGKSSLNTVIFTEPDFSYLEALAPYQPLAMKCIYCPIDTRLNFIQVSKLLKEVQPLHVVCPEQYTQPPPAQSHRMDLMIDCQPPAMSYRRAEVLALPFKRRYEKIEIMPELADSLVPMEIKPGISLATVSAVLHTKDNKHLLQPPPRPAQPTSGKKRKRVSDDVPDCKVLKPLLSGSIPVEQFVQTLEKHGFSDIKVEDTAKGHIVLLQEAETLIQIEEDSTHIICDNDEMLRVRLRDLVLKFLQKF
UniProt P48200: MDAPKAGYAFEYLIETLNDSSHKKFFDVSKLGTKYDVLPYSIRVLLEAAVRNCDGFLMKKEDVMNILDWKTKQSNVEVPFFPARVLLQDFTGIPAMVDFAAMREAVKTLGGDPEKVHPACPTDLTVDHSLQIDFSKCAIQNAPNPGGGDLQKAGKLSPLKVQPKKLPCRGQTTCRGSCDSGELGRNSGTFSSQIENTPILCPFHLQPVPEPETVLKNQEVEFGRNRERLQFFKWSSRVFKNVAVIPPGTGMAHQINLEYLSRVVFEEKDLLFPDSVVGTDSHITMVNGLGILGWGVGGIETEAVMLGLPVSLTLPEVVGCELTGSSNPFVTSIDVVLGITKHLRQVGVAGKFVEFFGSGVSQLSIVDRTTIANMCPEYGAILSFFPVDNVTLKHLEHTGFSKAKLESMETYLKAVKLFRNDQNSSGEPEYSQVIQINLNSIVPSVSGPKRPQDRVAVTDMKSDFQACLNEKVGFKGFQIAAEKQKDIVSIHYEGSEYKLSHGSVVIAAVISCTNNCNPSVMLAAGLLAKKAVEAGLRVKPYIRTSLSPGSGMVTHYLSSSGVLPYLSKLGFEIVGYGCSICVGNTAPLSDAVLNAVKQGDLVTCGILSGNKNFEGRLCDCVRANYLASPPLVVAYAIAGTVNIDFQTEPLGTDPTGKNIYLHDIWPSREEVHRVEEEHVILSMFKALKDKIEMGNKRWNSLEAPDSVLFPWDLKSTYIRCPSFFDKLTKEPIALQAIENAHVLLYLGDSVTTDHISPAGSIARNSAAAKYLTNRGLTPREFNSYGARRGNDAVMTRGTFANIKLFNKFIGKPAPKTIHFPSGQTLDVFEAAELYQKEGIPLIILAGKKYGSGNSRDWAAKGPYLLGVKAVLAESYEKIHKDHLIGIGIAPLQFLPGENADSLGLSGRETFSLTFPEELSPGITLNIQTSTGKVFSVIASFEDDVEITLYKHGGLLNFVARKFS
UniProt P19823: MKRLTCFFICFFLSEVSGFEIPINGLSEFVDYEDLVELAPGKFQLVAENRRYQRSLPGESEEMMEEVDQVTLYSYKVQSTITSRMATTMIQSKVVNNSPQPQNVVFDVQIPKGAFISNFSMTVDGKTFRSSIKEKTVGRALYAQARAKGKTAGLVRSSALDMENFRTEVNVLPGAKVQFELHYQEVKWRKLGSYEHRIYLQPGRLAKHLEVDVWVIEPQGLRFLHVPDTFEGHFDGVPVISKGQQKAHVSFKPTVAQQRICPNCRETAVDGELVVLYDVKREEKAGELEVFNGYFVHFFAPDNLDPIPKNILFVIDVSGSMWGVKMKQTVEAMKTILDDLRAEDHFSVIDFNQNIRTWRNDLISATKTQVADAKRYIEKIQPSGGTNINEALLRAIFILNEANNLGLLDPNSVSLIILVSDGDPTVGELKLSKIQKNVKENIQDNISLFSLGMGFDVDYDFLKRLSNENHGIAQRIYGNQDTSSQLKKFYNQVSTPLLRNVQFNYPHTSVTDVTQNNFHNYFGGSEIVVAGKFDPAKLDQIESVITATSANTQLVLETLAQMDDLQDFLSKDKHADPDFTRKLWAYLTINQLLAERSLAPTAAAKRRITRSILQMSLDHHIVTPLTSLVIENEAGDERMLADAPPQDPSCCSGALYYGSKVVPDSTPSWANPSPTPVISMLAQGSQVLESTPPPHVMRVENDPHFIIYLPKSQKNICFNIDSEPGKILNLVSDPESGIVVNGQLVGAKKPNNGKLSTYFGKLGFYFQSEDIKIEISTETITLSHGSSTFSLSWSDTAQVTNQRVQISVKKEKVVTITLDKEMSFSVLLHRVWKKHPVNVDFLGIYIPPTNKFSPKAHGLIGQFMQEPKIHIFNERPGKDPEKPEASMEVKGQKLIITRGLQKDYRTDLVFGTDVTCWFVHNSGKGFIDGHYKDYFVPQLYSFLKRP
UniProt Q8TEX9: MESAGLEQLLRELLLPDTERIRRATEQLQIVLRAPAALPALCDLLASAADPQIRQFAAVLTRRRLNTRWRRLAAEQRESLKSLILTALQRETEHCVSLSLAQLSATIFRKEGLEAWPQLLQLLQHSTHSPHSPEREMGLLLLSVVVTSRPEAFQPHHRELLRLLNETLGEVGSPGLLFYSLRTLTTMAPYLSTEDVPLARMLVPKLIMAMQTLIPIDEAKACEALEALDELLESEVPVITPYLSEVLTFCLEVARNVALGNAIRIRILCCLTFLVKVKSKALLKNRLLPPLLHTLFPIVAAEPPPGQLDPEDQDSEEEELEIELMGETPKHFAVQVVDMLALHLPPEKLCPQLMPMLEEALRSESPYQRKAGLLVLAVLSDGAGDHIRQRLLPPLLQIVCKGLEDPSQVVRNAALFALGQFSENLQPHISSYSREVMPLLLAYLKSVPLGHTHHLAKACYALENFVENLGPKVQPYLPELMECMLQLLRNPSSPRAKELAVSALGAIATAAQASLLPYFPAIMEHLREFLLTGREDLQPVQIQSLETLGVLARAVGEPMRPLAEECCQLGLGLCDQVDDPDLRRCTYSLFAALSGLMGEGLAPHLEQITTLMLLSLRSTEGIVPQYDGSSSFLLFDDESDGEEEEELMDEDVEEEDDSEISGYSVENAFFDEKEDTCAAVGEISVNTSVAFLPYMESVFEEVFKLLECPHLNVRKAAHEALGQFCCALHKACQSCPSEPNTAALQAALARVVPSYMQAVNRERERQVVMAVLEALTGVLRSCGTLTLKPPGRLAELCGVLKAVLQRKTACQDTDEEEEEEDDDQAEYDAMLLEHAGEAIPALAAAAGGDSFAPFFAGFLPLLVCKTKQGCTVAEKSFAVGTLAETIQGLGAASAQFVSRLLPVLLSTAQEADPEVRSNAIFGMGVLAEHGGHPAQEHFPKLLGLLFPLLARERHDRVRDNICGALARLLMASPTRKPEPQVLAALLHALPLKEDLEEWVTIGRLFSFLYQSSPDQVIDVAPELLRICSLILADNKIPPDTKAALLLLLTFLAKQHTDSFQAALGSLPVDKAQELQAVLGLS
UniProt Q06033: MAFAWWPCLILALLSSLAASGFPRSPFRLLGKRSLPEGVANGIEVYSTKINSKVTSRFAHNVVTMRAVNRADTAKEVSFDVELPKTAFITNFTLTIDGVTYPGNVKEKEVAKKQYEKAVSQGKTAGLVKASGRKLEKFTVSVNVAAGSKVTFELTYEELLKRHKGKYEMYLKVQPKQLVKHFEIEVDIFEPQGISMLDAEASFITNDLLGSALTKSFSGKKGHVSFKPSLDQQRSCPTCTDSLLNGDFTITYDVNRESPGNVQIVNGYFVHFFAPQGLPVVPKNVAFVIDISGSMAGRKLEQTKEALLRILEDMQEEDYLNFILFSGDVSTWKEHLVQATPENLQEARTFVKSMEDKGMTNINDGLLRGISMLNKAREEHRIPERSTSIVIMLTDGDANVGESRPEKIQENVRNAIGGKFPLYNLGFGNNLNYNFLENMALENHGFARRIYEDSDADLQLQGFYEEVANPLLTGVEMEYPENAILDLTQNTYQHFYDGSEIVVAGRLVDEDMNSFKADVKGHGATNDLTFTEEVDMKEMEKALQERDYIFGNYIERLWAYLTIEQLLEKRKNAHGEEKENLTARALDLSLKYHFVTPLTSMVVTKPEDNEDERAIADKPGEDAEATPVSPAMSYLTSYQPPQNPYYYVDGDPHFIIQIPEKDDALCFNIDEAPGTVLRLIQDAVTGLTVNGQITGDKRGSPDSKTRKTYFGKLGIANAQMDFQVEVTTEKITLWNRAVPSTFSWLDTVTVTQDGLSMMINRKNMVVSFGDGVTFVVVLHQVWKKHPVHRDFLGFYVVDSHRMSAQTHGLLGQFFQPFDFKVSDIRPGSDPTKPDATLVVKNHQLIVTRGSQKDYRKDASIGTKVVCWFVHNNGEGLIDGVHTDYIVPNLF

Tests used:
Test in all cases: log2 fold change, soluble protein after heating vs DMSO (PISA); higher = thermal stabilisation; K562 cells, 10 uM, 30 min; active = over 0.2 and 3.5 SD of the protein, either way, in both replicates (recomputed)
[1] = compound: C#Cc1cccc(Nc2ncnc3cc(OCCOC)c(OCCOC)cc23)c1 [erlotinib]
How it was run: (§1)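 Quantification of soluble protein used TMTpro 16plex LC-MS/MS, with channel sums equalised. Samples were the supernatant after 21,000xg for 90 min of pooled aliquots from K562 cells (2×10^6 cells/mL) treated with 10 μM compound for 30 min, heated for 3 min over 48°C-58°C, and extracted in PBS with 0.5% NP-40 at 4°C. Values, from duplicates, describe thermal stability against control samples on a log2 fold-change scale.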

[2] = compound: C/C(=N\NC(=O)C1=CC(=CC=C1)S(=O)(=O)N2CCOCC2)/C3=C(C=CC(=C3)Cl)O
How it was run: as §1

[3] = compound: C1=CC(=C(C=C1Cl)C2=NC3=NC=CN=C3C(=N2)NC4=CC=NC=C4)F
How it was run: as §1

[4] = compound: C1=CC(=CC=C1C2=NC3=C(N2)C=C(C=C3)C(=O)N)OC4=CC=C(C=C4)Cl
How it was run: as §1

[5] = compound: C1=CC2=C(C=CC(=C2)/C=C\3/C(=O)NC(=NCC4=CC=CS4)S3)N=C1
How it was run: as §1

[6] = compound: C1=CC2=NC=CN=C2C=C1/C=C/3\C(=O)NC(=O)S3
How it was run: as §1

[7] = compound: C1=CC=C(C=C1)C2=NC(=C(N2)C3=CC=NC=C3)C4=CC(=C(C=C4)Cl)O
How it was run: as §1

[8] = compound: C1=CC=C2C(=C1)C3=NNC4=CC=CC(=C43)C2=O
How it was run: as §1

[9] = compound: C1CCN(C1)C(=O)NC2=CC=CC(=C2)NC3=NC=C(C(=N3)NCCC4=CN=CN4)Br
How it was run: as §1

[10] = compound: C1CN(CCC1(CC2=CC=C(C=C2)Cl)N)C3=NC=NC4=C3C=CN4
How it was run: as §1

[11] = compound: C1COCCN1CCN2C3=CC=CC=C3N=C2NC(=O)C4=CC(=CC=C4)[N+](=O)[O-] [IRAK-1-4 Inhibitor I]
How it was run: as §1

[12] = compound: C=CC(=O)N1CCC[C@@H](n2nc(-c3ccc(Oc4ccccc4)cc3)c3c(N)ncnc32)C1 [ibrutinib]
How it was run: as §1

[13] = compound: CC(=O)c1cnc2ccc(-c3cc(Cl)c(O)c(Cl)c3)nc2c1N[C@H]1CC[C@H](CN(C)C)CC1
How it was run: as §1

[14] = compound: CC(C)(C)Cn1c(N)nc2ccc(-c3[nH]c(C(C)(C)C)nc3-c3ccc(F)cc3)nc21 [ralimetinib]
How it was run: as §1

[15] = compound: CC(C)(O)CC(=O)NCCn1ccc2ncnc(Nc3ccc(Oc4cccc(C(F)(F)F)c4)c(Cl)c3)c21
How it was run: as §1

[16] = compound: CC(C)C1=C2N=C(C=C(N2N=C1)NCC3=CC=CC=C3)NCCCCCCN
How it was run: as §1

[17] = compound: CC(C)C[C@@H](C=O)NC(=O)[C@H](CC(C)C)NC(=O)[C@H](CC(C)C)NC(=O)OCc1ccccc1
How it was run: as §1

[18] = compound: CC(C)N(C[C@H]1O[C@@H](n2cnc3c(N)ncnc32)[C@H](O)[C@@H]1O)[C@H]1C[C@@H](CCc2nc3cc(C(C)(C)C)ccc3[nH]2)C1 [pinometostat]
How it was run: as §1

[19] = compound: CC1=C(C(CC(=O)N1)C2=CC=C(C=C2)C(F)(F)F)C(=O)NC3=C(C=C4C(=C3)C=NN4)F
How it was run: as §1

[20] = compound: CC1=C(C2=C(C=C1)C(=O)C3=CC=CC=C3N2CCCN)C
How it was run: as §1

Measured: log2 fold change

IMPA1 isoform 3 (UniProt P29218)
inactive: [1] 0.005 | [2] 0.006 | [3] 0.038 | [4] 0.019 | [5] -0.001 | [6] 0.006 | [7] -0.047 | [8] -0.045 | [9] 0.001 | [10] 0.059 | [11] 0.042 | [12] 0.008 | [13] -0.004 | [14] -0.061 | [15] -0.005 | [16] 0.088 | [17] -0.043 | [18] -0.038 | [19] 0.056 | [20] 0.023

IDH3B (UniProt O43837)
inactive: [1] 0.002 | [2] 0.053 | [3] 0.115 | [4] 0.018 | [5] 0.017 | [6] 0.004 | [7] 0.09 | [8] 0.073 | [9] -0.033 | [10] 0.028 | [11] 0.013 | [12] 0.025 | [13] 0.021 | [14] -0.011 | [15] -0.044 | [16] 0.037 | [17] -0.13 | [18] -0.068 | [19] 0.035 | [20] 0.022

IMPDH2 (UniProt P12268)
inactive: [1] -0.117 | [2] -0.046 | [3] -0.107 | [4] 0.013 | [5] -0.042 | [6] -0.018 | [7] -0.031 | [8] 0.038 | [9] 0.013 | [10] -0.018 | [11] -0.054 | [12] -0.013 | [13] 0.005 | [14] -0.002 | [15] 0.007 | [16] 0.01 | [17] 0.003 | [18] 0.021 | [19] 0.024 | [20] -0.013

IKBIP isoform 4 (UniProt Q70UQ0)
inactive: [1] 0.009 | [2] -0.027 | [3] -0.013 | [4] 0.008 | [5] 0 | [6] 0.028 | [7] -0.054 | [8] -0.031 | [9] -0.003 | [10] -0.013 | [11] -0.006 | [12] -0.008 | [13] -0.008 | [14] -0.004 | [15] 0.036 | [16] -0.048 | [17] -0.075 | [18] -0.013 | [19] 0.03 | [20] -0.026

IDH2 (UniProt P48735)
inactive: [1] -0.01 | [2] 0.042 | [3] 0.11 | [4] 0.045 | [5] 0.013 | [6] -0.119 | [7] 0.031 | [8] -0.004 | [9] 0.01 | [10] 0.019 | [11] 0.034 | [12] 0.052 | [13] -0.011 | [14] -0.001 | [15] -0.027 | [16] 0.069 | [17] -0.036 | [18] -0.028 | [19] -0.074 | [20] 0.005

INTS10 (UniProt Q9NVR2)
inactive: [1] -0.018 | [2] 0.016 | [3] 0.024 | [4] 0.06 | [5] 0.044 | [6] 0.046 | [7] -0.028 | [8] 0.002 | [9] 0.015 | [10] 0.037 | [11] -0.022 | [12] -0.035 | [13] -0.104 | [14] -0.1 | [15] -0.055 | [16] -0.049 | [17] -0.087 | [18] -0.04 | [19] 0.022 | [20] 0.056

IMP3 (UniProt Q9NV31)
inactive: [1] 0.197 | [2] -0.232 | [3] 0.06 | [4] -0.208 | [5] -0.13 | [6] -0.125 | [7] -0.169 | [8] 0.102 | [9] -0.136 | [10] 0.437 | [11] -0.417 | [12] 0.314 | [13] -0.01 | [14] 0.004 | [15] -0.133 | [16] 0.1 | [17] -0.063 | [18] 0.57 | [19] -0.068 | [20] 0.088

IL18 (UniProt Q14116)
inactive: [1] 0.047 | [2] 0.009 | [3] 0.046 | [4] -0.021 | [5] 0.029 | [6] 0.033 | [7] -0.045 | [8] -0.023 | [9] -0.043 | [10] 0.058 | [11] 0.047 | [12] 0.047 | [13] 0.033 | [14] -0.061 | [15] -0.019 | [16] 0.079 | [17] 0.09 | [18] 0.007 | [19] 0.05 | [20] 0

INTS9 (UniProt Q9NV88)
inactive: [1] 0.018 | [2] 0.015 | [3] 0.031 | [4] 0.017 | [5] 0.084 | [6] 0.033 | [7] 0.049 | [8] 0.018 | [9] -0.036 | [10] -0.005 | [11] 0.007 | [12] 0.007 | [13] -0.04 | [14] -0.026 | [15] 0.002 | [16] -0.008 | [17] 0.016 | [18] -0.003 | [19] -0.028 | [20] 0.008

IMPAD1 (UniProt Q9NX62)
inactive: [1] -0.035 | [2] -0.029 | [3] 0.013 | [4] -0.014 | [5] 0.07 | [6] 0.06 | [7] 0.017 | [8] -0.001 | [9] 0 | [10] 0.021 | [11] -0.002 | [12] 0.007 | [13] 0.005 | [14] -0.134 | [15] -0.043 | [16] 0.063 | [17] 0.077 | [18] -0.077 | [19] 0.016 | [20] -0.001

Two successive entries out of the list so far:
IMP3 (UniProt Q9NV31)
inactive: [1] 0.197 | [2] -0.232 | [3] 0.06 | [4] -0.208 | [5] -0.13 | [6] -0.125 | [7] -0.169 | [8] 0.102 | [9] -0.136 | [10] 0.437 | [11] -0.417 | [12] 0.314 | [13] -0.01 | [14] 0.004 | [15] -0.133 | [16] 0.1 | [17] -0.063 | [18] 0.57 | [19] -0.068 | [20] 0.088

IL18 (UniProt Q14116)
inactive: [1] 0.047 | [2] 0.009 | [3] 0.046 | [4] -0.021 | [5] 0.029 | [6] 0.033 | [7] -0.045 | [8] -0.023 | [9] -0.043 | [10] 0.058 | [11] 0.047 | [12] 0.047 | [13] 0.033 | [14] -0.061 | [15] -0.019 | [16] 0.079 | [17] 0.09 | [18] 0.007 | [19] 0.05 | [20] 0

Continuation:

IREB2 (UniProt P48200)
inactive: [1] 0.121 | [2] -0.107 | [3] 0.063 | [4] 0.007 | [5] 0.002 | [6] -0.007 | [7] -0.037 | [8] 0.052 | [9] -0.091 | [10] 0.034 | [11] -0.078 | [12] -0.003 | [13] 0 | [14] 0.073 | [15] -0.045 | [16] -0.09 | [17] 0.067 | [18] 0.084 | [19] 0.007 | [20] 0.021

ITIH2 (UniProt P19823)
inactive: [1] -0.132 | [2] -0.174 | [3] 0.054 | [4] 0.113 | [5] 0.131 | [6] -0.024 | [7] -0.005 | [8] -0.123 | [9] 0.147 | [10] 0.26 | [11] 0.082 | [12] 0.291 | [13] 0.168 | [14] -0.029 | [15] 0.232 | [16] 0.189 | [17] 0.021 | [18] -0.042 | [19] 0.018 | [20] -0.184

IPO4 isoform 2 (UniProt Q8TEX9)
inactive: [1] 0.011 | [2] 0.043 | [3] -0.038 | [4] -0.049 | [5] -0.016 | [6] 0.07 | [7] 0.085 | [8] -0.028 | [9] -0.062 | [10] -0.084 | [11] -0.051 | [12] -0.064 | [13] 0.085 | [14] 0.206 | [15] -0.07 | [16] -0.232 | [17] 0.07 | [18] 0.12 | [19] -0.03 | [20] 0.273

ITIH3 (UniProt Q06033)
inactive: [1] -0.349 | [2] -0.198 | [3] 0.03 | [4] 0.109 | [5] 0.067 | [6] -0.034 | [7] -0.121 | [8] -0.201 | [9] 0.13 | [10] 0.221 | [11] -0.073 | [12] 0.27 | [13] 0.141 | [14] -0.045 | [15] 0.196 | [16] 0.236 | [17] 0.033 | [18] -0.136 | [19] -0.006 | [20] -0.158

IQGAP2 (UniProt Q13576)
inactive: [1] 0.195 | [2] 0.139 | [3] -0.042 | [4] -0.005 | [5] 0.024 | [6] -0.015 | [7] 0.029 | [8] -0.05 | [9] -0.078 | [10] -0.14 | [11] -0.083 | [12] -0.071 | [13] -0.206 | [14] 0.027 | [15] -0.154 | [16] -0.319 | [17] 0.06 | [18] 0.145 | [19] -0.036 | [20] -0.01

IMPDH1 isoform 6 (UniProt P20839)
inactive: [1] -0.109 | [2] -0.08 | [3] -0.071 | [4] 0.006 | [5] -0.024 | [6] -0.01 | [7] -0.048 | [8] 0.026 | [9] -0.007 | [10] -0.029 | [11] -0.062 | [12] -0.013 | [13] 0.024 | [14] 0 | [15] 0.048 | [16] 0.018 | [17] 0.004 | [18] 0.028 | [19] 0.062 | [20] -0.014
